In the supplement of paper PMC10849652:
This is one part of the list.

Protein sequences, listed by entry. Tags and fused reporters are not part of them. Lines headed by an entry give the natural chain unless they say otherwise; changes in a name come on top.
UniProt Q7Z7N9: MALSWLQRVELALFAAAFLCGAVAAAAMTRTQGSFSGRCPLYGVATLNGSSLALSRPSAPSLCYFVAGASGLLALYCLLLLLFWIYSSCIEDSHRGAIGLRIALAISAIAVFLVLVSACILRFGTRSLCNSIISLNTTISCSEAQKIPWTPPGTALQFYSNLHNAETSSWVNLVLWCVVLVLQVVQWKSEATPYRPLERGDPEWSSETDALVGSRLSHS
UniProt Q7Z7H5: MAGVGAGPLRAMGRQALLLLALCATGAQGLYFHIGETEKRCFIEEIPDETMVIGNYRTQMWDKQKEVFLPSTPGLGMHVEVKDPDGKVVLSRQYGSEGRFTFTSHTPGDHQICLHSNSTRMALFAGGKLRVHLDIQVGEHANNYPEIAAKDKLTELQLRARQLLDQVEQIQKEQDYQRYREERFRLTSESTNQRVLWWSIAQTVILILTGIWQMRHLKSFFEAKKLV
UniProt Q96J01: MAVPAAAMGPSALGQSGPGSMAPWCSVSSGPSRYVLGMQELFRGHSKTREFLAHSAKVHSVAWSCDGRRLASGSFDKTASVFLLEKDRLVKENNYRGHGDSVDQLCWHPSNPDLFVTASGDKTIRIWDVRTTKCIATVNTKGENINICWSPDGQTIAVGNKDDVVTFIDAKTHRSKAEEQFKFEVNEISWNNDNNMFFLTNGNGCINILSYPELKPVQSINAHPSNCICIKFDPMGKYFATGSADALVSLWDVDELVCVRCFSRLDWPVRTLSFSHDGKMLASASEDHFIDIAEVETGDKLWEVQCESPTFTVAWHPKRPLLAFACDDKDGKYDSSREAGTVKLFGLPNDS
UniProt P17152: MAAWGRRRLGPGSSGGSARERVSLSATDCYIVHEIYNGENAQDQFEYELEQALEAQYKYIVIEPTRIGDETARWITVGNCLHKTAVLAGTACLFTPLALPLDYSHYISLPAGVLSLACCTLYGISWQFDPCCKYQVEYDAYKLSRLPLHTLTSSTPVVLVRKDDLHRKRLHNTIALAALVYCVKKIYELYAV
UniProt Q6I9Y2: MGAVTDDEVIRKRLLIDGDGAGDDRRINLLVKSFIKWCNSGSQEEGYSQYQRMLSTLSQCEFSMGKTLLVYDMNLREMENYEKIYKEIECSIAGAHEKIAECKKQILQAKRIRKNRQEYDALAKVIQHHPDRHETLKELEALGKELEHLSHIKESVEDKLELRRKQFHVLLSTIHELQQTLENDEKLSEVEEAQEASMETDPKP
UniProt Q8IUX1: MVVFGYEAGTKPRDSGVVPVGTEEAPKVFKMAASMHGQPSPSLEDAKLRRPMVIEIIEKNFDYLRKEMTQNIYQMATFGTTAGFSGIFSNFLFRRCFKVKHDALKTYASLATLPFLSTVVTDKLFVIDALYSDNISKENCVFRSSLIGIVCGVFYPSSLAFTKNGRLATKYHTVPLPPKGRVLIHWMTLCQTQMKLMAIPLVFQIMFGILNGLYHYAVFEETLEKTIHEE
UniProt Q9Y490: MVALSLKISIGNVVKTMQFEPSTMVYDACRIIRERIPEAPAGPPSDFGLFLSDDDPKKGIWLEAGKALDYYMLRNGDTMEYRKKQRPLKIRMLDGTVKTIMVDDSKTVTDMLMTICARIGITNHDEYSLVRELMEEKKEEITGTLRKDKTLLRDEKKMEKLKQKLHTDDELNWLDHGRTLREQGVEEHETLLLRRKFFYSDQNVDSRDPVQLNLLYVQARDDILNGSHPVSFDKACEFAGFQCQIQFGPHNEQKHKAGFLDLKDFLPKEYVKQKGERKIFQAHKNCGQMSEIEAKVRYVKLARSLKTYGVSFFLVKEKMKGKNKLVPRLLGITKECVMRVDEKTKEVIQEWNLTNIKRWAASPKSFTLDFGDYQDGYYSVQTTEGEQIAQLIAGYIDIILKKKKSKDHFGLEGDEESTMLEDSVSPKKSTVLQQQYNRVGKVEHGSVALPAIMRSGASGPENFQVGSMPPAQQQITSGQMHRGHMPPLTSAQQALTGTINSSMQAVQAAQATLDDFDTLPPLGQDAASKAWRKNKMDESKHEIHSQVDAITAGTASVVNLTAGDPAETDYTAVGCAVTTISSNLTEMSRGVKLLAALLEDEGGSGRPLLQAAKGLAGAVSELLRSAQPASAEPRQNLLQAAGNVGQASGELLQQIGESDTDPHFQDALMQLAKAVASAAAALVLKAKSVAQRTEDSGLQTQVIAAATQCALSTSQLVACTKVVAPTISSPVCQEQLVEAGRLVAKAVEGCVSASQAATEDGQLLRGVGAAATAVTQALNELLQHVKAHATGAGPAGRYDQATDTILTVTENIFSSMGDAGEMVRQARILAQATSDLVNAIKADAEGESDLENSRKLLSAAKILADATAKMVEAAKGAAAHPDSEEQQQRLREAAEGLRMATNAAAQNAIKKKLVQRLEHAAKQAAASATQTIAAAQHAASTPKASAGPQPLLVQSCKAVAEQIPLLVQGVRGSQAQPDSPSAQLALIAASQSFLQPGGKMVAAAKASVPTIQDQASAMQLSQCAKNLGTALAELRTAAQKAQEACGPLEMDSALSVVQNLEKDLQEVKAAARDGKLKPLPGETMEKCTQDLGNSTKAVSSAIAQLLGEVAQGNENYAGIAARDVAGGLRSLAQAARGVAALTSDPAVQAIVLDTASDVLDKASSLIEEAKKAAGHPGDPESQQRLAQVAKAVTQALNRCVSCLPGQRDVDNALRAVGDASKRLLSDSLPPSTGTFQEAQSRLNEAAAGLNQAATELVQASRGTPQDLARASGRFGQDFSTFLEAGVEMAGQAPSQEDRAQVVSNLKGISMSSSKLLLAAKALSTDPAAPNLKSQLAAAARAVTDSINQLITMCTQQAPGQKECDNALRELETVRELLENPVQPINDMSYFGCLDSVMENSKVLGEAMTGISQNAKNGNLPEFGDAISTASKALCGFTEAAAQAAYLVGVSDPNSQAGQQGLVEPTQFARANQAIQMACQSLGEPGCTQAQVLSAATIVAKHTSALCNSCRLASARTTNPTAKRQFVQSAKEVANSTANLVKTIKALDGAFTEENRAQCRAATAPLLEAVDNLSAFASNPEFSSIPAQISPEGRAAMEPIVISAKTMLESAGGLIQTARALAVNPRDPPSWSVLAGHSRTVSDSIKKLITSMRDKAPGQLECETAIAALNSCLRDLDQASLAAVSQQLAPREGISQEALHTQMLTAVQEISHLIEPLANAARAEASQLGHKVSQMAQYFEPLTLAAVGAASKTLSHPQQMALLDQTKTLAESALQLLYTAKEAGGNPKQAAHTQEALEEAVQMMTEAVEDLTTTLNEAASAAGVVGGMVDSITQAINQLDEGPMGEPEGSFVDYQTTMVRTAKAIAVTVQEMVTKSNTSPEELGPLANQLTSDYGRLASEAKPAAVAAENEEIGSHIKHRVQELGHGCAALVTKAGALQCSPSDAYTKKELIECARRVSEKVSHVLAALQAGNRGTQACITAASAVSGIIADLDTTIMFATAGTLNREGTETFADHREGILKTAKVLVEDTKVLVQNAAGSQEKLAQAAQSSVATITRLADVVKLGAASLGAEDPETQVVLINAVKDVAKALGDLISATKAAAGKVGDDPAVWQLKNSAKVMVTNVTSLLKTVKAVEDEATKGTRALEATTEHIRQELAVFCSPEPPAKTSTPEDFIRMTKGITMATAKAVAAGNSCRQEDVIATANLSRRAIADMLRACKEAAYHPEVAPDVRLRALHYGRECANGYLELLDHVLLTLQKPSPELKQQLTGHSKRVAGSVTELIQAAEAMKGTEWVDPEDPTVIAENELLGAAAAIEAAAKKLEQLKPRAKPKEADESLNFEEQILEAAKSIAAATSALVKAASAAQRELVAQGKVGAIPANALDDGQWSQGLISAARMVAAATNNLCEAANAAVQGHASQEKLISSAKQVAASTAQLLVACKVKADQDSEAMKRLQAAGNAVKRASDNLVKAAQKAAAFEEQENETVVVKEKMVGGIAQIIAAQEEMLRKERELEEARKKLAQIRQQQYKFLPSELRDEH
UniProt Q9BVK6: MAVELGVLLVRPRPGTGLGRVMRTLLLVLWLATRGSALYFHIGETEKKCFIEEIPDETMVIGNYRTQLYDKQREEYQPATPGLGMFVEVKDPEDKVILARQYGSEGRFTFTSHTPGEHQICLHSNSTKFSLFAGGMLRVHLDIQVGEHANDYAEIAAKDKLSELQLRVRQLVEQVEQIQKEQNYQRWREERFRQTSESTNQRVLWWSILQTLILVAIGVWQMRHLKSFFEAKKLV
UniProt Q9Y5J7: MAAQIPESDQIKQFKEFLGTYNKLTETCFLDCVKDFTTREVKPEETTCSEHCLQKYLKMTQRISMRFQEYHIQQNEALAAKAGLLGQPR
UniProt Q13445: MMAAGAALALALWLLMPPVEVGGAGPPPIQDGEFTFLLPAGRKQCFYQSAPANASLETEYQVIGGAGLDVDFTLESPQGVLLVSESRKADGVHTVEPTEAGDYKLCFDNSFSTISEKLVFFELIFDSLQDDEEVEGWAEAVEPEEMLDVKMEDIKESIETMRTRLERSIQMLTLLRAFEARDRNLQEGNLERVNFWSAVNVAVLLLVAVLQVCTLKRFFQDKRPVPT
UniProt Q96CP7: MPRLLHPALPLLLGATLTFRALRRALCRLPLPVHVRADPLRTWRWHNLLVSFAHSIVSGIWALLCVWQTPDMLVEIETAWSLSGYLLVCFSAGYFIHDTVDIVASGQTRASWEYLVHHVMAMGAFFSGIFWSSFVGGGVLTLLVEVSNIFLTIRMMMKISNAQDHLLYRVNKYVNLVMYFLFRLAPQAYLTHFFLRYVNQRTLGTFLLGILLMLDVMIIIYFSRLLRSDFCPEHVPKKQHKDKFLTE
UniProt P01033: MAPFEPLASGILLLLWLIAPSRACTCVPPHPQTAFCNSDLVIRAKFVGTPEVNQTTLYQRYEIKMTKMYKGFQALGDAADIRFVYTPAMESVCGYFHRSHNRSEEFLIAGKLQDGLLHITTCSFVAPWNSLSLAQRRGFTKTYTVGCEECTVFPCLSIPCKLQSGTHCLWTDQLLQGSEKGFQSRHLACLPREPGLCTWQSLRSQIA
UniProt Q9Y5L4: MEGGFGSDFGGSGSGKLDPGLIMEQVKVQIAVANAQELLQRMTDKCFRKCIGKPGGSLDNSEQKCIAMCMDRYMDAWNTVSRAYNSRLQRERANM
UniProt P31483: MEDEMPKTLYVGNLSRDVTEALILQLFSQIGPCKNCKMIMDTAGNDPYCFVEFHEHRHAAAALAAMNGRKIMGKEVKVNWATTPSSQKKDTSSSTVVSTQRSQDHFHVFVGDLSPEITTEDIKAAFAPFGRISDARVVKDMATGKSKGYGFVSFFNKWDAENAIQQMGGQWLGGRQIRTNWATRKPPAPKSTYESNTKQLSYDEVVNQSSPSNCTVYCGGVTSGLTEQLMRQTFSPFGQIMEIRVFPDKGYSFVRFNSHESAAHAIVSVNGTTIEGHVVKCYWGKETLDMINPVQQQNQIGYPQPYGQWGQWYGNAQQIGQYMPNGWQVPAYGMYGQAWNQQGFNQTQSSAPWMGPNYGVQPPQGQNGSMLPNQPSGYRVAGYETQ
UniProt Q96B77: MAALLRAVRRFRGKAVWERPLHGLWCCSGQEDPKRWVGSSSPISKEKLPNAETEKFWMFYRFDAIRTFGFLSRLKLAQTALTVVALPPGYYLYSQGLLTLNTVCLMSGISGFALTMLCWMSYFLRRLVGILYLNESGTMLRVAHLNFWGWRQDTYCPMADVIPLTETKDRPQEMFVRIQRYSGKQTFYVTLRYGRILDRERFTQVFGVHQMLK
UniProt Q9HC07: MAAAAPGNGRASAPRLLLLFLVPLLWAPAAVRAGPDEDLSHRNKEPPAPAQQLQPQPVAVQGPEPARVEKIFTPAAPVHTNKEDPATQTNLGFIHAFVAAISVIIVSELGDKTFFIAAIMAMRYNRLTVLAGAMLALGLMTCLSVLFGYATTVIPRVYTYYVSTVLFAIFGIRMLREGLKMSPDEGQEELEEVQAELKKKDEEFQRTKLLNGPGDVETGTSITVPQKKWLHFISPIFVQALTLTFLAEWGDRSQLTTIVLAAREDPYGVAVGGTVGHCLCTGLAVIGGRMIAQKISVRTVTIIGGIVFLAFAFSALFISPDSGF

What was measured:
Assay in all cases: log2 fold change, soluble protein after heating vs DMSO (PISA); higher = thermal stabilisation; K562 lysate, 10 uM; active = over 0.2 and 3.5 SD of the protein, either way, in both replicates (recomputed)
alvocidib = compound: CN1CC[C@H](c2c(O)cc(O)c3c(=O)cc(-c4ccccc4Cl)oc23)[C@H](O)C1 [alvocidib]
In short: (§1)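 The values are log-two fold changes in thermal stability compared with solvent controls and come from duplicates. They were obtained by TMTpro 16plex LC-MS/MS, with channel sums equalised, on the supernatant after 21,000xg for 90 min. That supernatant came from crude K562 extract at 1 mg/mL protein treated with 10 μM compound for 30 min, heated for 3 min across 48°C-58°C, pooled and brought to 0.5% NP-40 at 4°C.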

Tubastatin A = compound: CN1CCc2c(c3ccccc3n2Cc2ccc(C(=O)NO)cc2)C1 [Tubastatin A]
In short: as §1

[1] = compound: CNC(=O)C1=CC=CC=C1NC2=NC(=NC=C2Cl)NC3=C(C=C(C=C3)N4CCOCC4)OC
In short: as §1

defactinib = compound: CNC(=O)c1ccc(Nc2ncc(C(F)(F)F)c(NCc3nccnc3N(C)S(C)(=O)=O)n2)cc1 [defactinib]
In short: as §1

[2] = compound: CNc1nc(-c2ccc3c(N)n[nH]c3c2)cc(N2C[C@@H](C(=O)NC3CCCCC3)CC[C@H]2C)n1
In short: as §1

encorafenib = compound: COC(=O)N[C@@H](C)CNc1nccc(-c2cn(C(C)C)nc2-c2cc(Cl)cc(NS(C)(=O)=O)c2F)n1 [encorafenib]
In short: as §1

[3] = compound: COC(=O)[C@H](CCSC)NC(=O)C1=C(C=C(C=C1)NC[C@H](CS)N)C2=CC=CC=C2
In short: as §1

alisertib = compound: COc1cc(Nc2ncc3c(n2)-c2ccc(Cl)cc2C(c2c(F)cccc2OC)=NC3)ccc1C(=O)O [alisertib]
In short: as §1

[4] = compound: COc1cc2nc(-c3cc(F)ccc3O)nc(N[C@@H]3CNC[C@H]3C(C)(C)O)c2cc1OC
In short: as §1

gefitinib = compound: COc1cc2ncnc(Nc3ccc(F)c(Cl)c3)c2cc1OCCCN1CCOCC1 [gefitinib]
In short: as §1

lapatinib = compound: CS(=O)(=O)CCNCc1ccc(-c2ccc3ncnc(Nc4ccc(OCc5cccc(F)c5)c(Cl)c4)c3c2)o1 [lapatinib]
In short: as §1

pictilisib = compound: CS(=O)(=O)N1CCN(Cc2cc3nc(-c4cccc5[nH]ncc45)nc(N4CCOCC4)c3s2)CC1 [pictilisib]
In short: as §1

crizotinib = compound: C[C@@H](Oc1cc(-c2cnn(C3CCNCC3)c2)cnc1N)c1c(Cl)ccc(F)c1Cl [crizotinib]
In short: as §1

[5] = compound: C[C@H](C1=CC=C(C=C1)C(=O)NC2=C3C=CNC3=NC=C2)N
In short: as §1

duvelisib = compound: C[C@H](Nc1ncnc2nc[nH]c12)c1cc2cccc(Cl)c2c(=O)n1-c1ccccc1 [duvelisib]
In short: as §1

gandotinib = compound: Cc1cc(Nc2cc(CN3CCOCC3)c3nc(C)c(Cc4ccc(Cl)cc4F)n3n2)n[nH]1 [gandotinib]
In short: as §1

tozasertib = compound: Cc1cc(Nc2cc(N3CCN(C)CC3)nc(Sc3ccc(NC(=O)C4CC4)cc3)n2)n[nH]1 [tozasertib]
In short: as §1

doramapimod = compound: Cc1ccc(-n2nc(C(C)(C)C)cc2NC(=O)Nc2ccc(OCCN3CCOCC3)c3ccccc23)cc1 [doramapimod]
In short: as §1

bafetinib = compound: Cc1ccc(NC(=O)c2ccc(CN3CC[C@H](N(C)C)C3)c(C(F)(F)F)c2)cc1Nc1nccc(-c2cncnc2)n1 [bafetinib]
In short: as §1

[6] = compound: Cc1cccc(CC(=O)N2CCc3c2ccc(-c2cn(C)c4ncnc(N)c24)c3F)n1
In short: as §1

Measured: log2 fold change

TMEM179B (UniProt Q7Z7N9)
inactive: alvocidib -0.068 | Tubastatin A 0.163 | [1] 0.125 | defactinib 0.012 | [2] 0.013 | encorafenib 0.046 | [3] -0.07 | alisertib 0 | [4] 0.029 | gefitinib -0.064 | lapatinib 0.014 | pictilisib 0.016 | crizotinib -0.07 | [5] -0.039 | duvelisib 0.019 | gandotinib 0.08 | tozasertib 0.089 | doramapimod -0.201 | bafetinib -0.058 | [6] 0.092

TMED4 (UniProt Q7Z7H5)
inactive: alvocidib 0.027 | Tubastatin A 0.075 | [1] 0.028 | defactinib -0.011 | [2] 0.027 | encorafenib 0.016 | [3] -0.025 | alisertib 0.015 | [4] 0.002 | gefitinib -0.011 | lapatinib 0.016 | pictilisib 0.052 | crizotinib 0 | [5] 0.192 | duvelisib -0.007 | gandotinib 0.017 | tozasertib -0.012 | doramapimod -0.002 | bafetinib 0.043 | [6] 0.015

THOC3 (UniProt Q96J01)
inactive: alvocidib 0.002 | Tubastatin A -0.047 | [1] -0.011 | defactinib 0.038 | [2] -0.047 | encorafenib -0.044 | [3] 0.053 | alisertib -0.003 | [4] -0.002 | gefitinib -0.065 | lapatinib 0.007 | pictilisib -0.001 | crizotinib 0.01 | [5] 0.029 | duvelisib -0.016 | gandotinib -0.022 | tozasertib -0.015 | doramapimod 0.031 | bafetinib -0.031 | [6] -0.02

TMEM11 (UniProt P17152)
inactive: alvocidib 0.034 | Tubastatin A -0.074 | [1] 0.052 | defactinib 0.061 | [2] -0.027 | encorafenib -0.001 | [3] -0.148 | alisertib 0.018 | [4] -0.005 | gefitinib 0.013 | lapatinib 0.013 | pictilisib 0.008 | crizotinib 0.058 | [5] -0.029 | duvelisib -0.028 | gandotinib 0.045 | tozasertib 0.103 | doramapimod 0.067 | bafetinib -0.046 | [6] -0.022

THOC7 (UniProt Q6I9Y2)
inactive: alvocidib 0 | Tubastatin A -0.008 | [1] 0.047 | defactinib 0.059 | [2] -0.012 | encorafenib -0.013 | [3] 0.043 | alisertib -0.016 | [4] -0.021 | gefitinib 0.025 | lapatinib -0.019 | pictilisib -0.05 | crizotinib -0.014 | [5] -0.027 | duvelisib -0.058 | gandotinib -0.001 | tozasertib 0.019 | doramapimod 0.002 | bafetinib -0.067 | [6] 0.008

TMEM126B (UniProt Q8IUX1)
inactive: alvocidib -0.035 | Tubastatin A 0.061 | [1] 0 | defactinib -0.045 | [2] 0.044 | encorafenib -0.006 | [3] 0.011 | alisertib 0.019 | [4] -0.014 | gefitinib -0.015 | lapatinib -0.067 | pictilisib -0.076 | crizotinib -0.04 | [5] -0.057 | duvelisib 0.047 | gandotinib 0.081 | tozasertib -0.021 | doramapimod 0.029 | bafetinib -0.109 | [6] 0.099

Reprinted from above (2 entries):
THOC7 (UniProt Q6I9Y2)
inactive: alvocidib 0 | Tubastatin A -0.008 | [1] 0.047 | defactinib 0.059 | [2] -0.012 | encorafenib -0.013 | [3] 0.043 | alisertib -0.016 | [4] -0.021 | gefitinib 0.025 | lapatinib -0.019 | pictilisib -0.05 | crizotinib -0.014 | [5] -0.027 | duvelisib -0.058 | gandotinib -0.001 | tozasertib 0.019 | doramapimod 0.002 | bafetinib -0.067 | [6] 0.008

TMEM126B (UniProt Q8IUX1)
inactive: alvocidib -0.035 | Tubastatin A 0.061 | [1] 0 | defactinib -0.045 | [2] 0.044 | encorafenib -0.006 | [3] 0.011 | alisertib 0.019 | [4] -0.014 | gefitinib -0.015 | lapatinib -0.067 | pictilisib -0.076 | crizotinib -0.04 | [5] -0.057 | duvelisib 0.047 | gandotinib 0.081 | tozasertib -0.021 | doramapimod 0.029 | bafetinib -0.109 | [6] 0.099

Remaining list, next part:

TLN1 (UniProt Q9Y490)
inactive: alvocidib -0.001 | Tubastatin A 0.01 | [1] -0.011 | defactinib -0.009 | [2] -0.009 | encorafenib -0.014 | [3] 0.021 | alisertib 0.006 | [4] -0.005 | gefitinib -0.017 | lapatinib -0.004 | pictilisib 0 | crizotinib 0.01 | [5] -0.012 | duvelisib 0.005 | gandotinib -0.005 | tozasertib 0.002 | doramapimod 0.007 | bafetinib -0.003 | [6] 0.002

TMED9 (UniProt Q9BVK6)
inactive: alvocidib -0.009 | Tubastatin A 0.046 | [1] -0.016 | defactinib -0.061 | [2] -0.039 | encorafenib 0.02 | [3] -0.036 | alisertib -0.023 | [4] -0.055 | gefitinib 0 | lapatinib -0.012 | pictilisib 0.05 | crizotinib -0.029 | [5] -0.03 | duvelisib -0.006 | gandotinib 0.003 | tozasertib 0.022 | doramapimod 0.023 | bafetinib 0.099 | [6] -0.01

TIMM9 (UniProt Q9Y5J7)
inactive: alvocidib 0.087 | Tubastatin A 0.096 | [1] 0.092 | defactinib 0.141 | [2] 0.024 | encorafenib -0.026 | [3] -0.166 | alisertib 0.056 | [4] -0.011 | gefitinib -0.122 | lapatinib 0.064 | pictilisib -0.209 | crizotinib 0.018 | [5] 0.148 | duvelisib 0.012 | gandotinib -0.117 | tozasertib 0.02 | doramapimod 0.015 | bafetinib -0.033 | [6] -0.113

TMED1 (UniProt Q13445)
inactive: alvocidib -0.039 | Tubastatin A 0.035 | [1] 0.119 | defactinib 0.003 | [2] 0.115 | encorafenib 0.013 | [3] 0.005 | alisertib -0.051 | [4] -0.014 | gefitinib 0.037 | lapatinib -0.042 | pictilisib 0.018 | crizotinib 0.078 | [5] 0.002 | duvelisib 0.001 | gandotinib -0.01 | tozasertib 0.018 | doramapimod -0.093 | bafetinib 0.013 | [6] 0.005

TLCD1 (UniProt Q96CP7)
inactive: alvocidib -0.121 | Tubastatin A 0.1 | [1] 0.013 | defactinib 0.112 | [2] 0.032 | encorafenib -0.002 | [3] -0.09 | alisertib 0.013 | [4] -0.151 | gefitinib 0.119 | lapatinib -0.073 | pictilisib 0.038 | crizotinib 0.002 | [5] 0.034 | duvelisib -0.091 | gandotinib 0.059 | tozasertib 0.145 | doramapimod 0.113 | bafetinib 0.128 | [6] -0.005

TIMP1 (UniProt P01033)
inactive: alvocidib -0.033 | Tubastatin A 0.046 | [1] -0.03 | defactinib 0.005 | [2] 0.014 | encorafenib -0.022 | [3] 0.028 | alisertib 0.04 | [4] 0.033 | gefitinib -0.05 | lapatinib -0.019 | pictilisib 0.009 | crizotinib -0.015 | [5] -0.082 | duvelisib -0.014 | gandotinib 0.05 | tozasertib 0.088 | doramapimod 0.039 | bafetinib -0.056 | [6] -0.008

TIMM13 (UniProt Q9Y5L4)
inactive: alvocidib -0.016 | Tubastatin A -0.022 | [1] -0.005 | defactinib 0.001 | [2] 0 | encorafenib 0.04 | [3] -0.082 | alisertib 0.012 | [4] 0.012 | gefitinib -0.072 | lapatinib 0.012 | pictilisib -0.039 | crizotinib 0.045 | [5] 0.014 | duvelisib 0.068 | gandotinib 0.007 | tozasertib 0.032 | doramapimod 0.052 | bafetinib 0.084 | [6] -0.021

TIA1 (UniProt P31483)
inactive: alvocidib 0.005 | Tubastatin A 0.031 | [1] 0.021 | defactinib -0.009 | [2] 0.146 | encorafenib 0.054 | [3] -0.052 | alisertib 0.042 | [4] -0.024 | gefitinib 0.002 | lapatinib 0.049 | pictilisib 0.015 | crizotinib 0.042 | [5] 0.027 | duvelisib -0.051 | gandotinib 0.061 | tozasertib 0.004 | doramapimod -0.001 | bafetinib 0.011 | [6] -0.006

TMEM186 (UniProt Q96B77)
inactive: alvocidib 0.087 | Tubastatin A 0.021 | [1] 0.002 | defactinib -0.008 | [2] 0.032 | encorafenib 0.044 | [3] -0.05 | alisertib -0.046 | [4] 0.013 | gefitinib 0.124 | lapatinib 0.007 | pictilisib 0.005 | crizotinib -0.025 | [5] 0.184 | duvelisib 0.035 | gandotinib -0.149 | tozasertib -0.049 | doramapimod 0.028 | bafetinib -0.095 | [6] -0.179

TMEM165 (UniProt Q9HC07)
inactive: alvocidib -0.02 | Tubastatin A -0.013 | [1] 0.006 | defactinib 0.025 | [2] 0.009 | encorafenib 0.03 | [3] -0.042 | alisertib -0.043 | [4] -0.002 | gefitinib -0.017 | lapatinib -0.007 | pictilisib 0.026 | crizotinib -0.015 | [5] -0.062 | duvelisib -0.011 | gandotinib 0.106 | tozasertib -0.028 | doramapimod 0.017 | bafetinib -0.017 | [6] 0.09
